# Values from PubChem BioAssay AID1259307 (Sanger Institute, 2017).
# Test: 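Identify kinases needed for SW620 growth or enhancing BYL719, cetuximab or trametinib effects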 (primary screen)
# System: SW620 colorectal cancer cells
# Reagent: siRNA pool against human genes
# Challenge: anchor drugs BYL719 at 1 µM, cetuximab at 5 µg/ml or trametinib at 10 nM, each beside a DMSO vehicle arm
# Detection: 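Per-well viability versus non-targeting control pool, replicate-averaged, robust z-score from controls; synergy scores for BYL719 1 µM, cetuximab 5 µg/ml, trametinib 10 nM against DMSO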
# Scale: viability robust z-score, no drug: higher = more viable cells
# Call rule: 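Essential when the viability robust z-score without drug is under -3; synergy scores are ignored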
# Meaning of the calls: active = essential (lethal alone); inactive = no change alone
# The whole screen tested 794 reagents; below is an unselected part. 15 of them (1.9%) count as active. 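Calls reflect lethality without any drug; synergy scores did not enter the calls.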 Not all columns of the deposit are shown. Not given: the amount of reagent, the time to read-out.
Gene,"viability robust z-score, no drug",activity call
SCYL1 (SCY1 like pseudokinase 1),-0.581,inactive
PANK2 (pantothenate kinase 2),0.188,inactive
ASPM (assembly factor for spindle microtubules),-0.222,inactive
PIP4K2C (phosphatidylinositol-5-phosphate 4-kinase type 2 gamma),-1.13,inactive
ADGRL2 (adhesion G protein-coupled receptor L2),0.736,inactive
FGFR2 (fibroblast growth factor receptor 2),0.297,inactive
MAP4K2 (mitogen-activated protein kinase kinase kinase kinase 2),-1.82,inactive
"PIM1 (Pim-1 proto-oncogene, serine/threonine kinase)",-2.05,inactive
CTCF (CCCTC-binding factor),-0.993,inactive
LRRK1 (leucine rich repeat kinase 1),0.736,inactive
BMPR1A (bone morphogenetic protein receptor type 1A),-0.181,inactive
CDK11A (cyclin dependent kinase 11A),-3.93,active
HIPK1 (homeodomain interacting protein kinase 1),0.736,inactive
CTNNB1 (catenin beta 1),-1.67,inactive
MAP4K1 (mitogen-activated protein kinase kinase kinase kinase 1),-1.76,inactive
PKIB (cAMP-dependent protein kinase inhibitor beta),0.611,inactive
ERN2 (endoplasmic reticulum to nucleus signaling 2),0.736,inactive
MYO3A (myosin IIIA),-0.0958,inactive
EGFR (epidermal growth factor receptor),-0.78,inactive
PANK3 (pantothenate kinase 3),0.736,inactive
SMAD2 (SMAD family member 2),-0.442,inactive
PHKA2 (phosphorylase kinase regulatory subunit alpha 2),-2.09,inactive
NRBP2 (nuclear receptor binding protein 2),-0.126,inactive
MTOR (mechanistic target of rapamycin kinase),-0.855,inactive
MYH10 (myosin heavy chain 10),0.681,inactive
FASTK (Fas activated serine/threonine kinase),0.332,inactive
BMP2K (BMP2 inducible kinase),-1.08,inactive
COMMD3 (COMM domain containing 3),0.736,inactive
IKBKE (inhibitor of nuclear factor kappa B kinase subunit epsilon),0.736,inactive
MAP3K2 (mitogen-activated protein kinase kinase kinase 2),0.736,inactive
NEK1 (NIMA related kinase 1),-0.8,inactive
CERK (ceramide kinase),0.736,inactive
RIOK1 (RIO kinase 1),-0.589,inactive
CDK6 (cyclin dependent kinase 6),0.736,inactive
"PIKFYVE (phosphoinositide kinase, FYVE-type zinc finger containing)",-1.48,inactive
"PFKFB4 (6-phosphofructo-2-kinase/fructose-2,6-biphosphatase 4)",0.736,inactive
CRIM1 (cysteine rich transmembrane BMP regulator 1),-0.55,inactive
NEK5 (NIMA related kinase 5),-0.965,inactive
MPP3 (MAGUK p55 scaffold protein 3),0.529,inactive
MKNK1 (MAPK interacting serine/threonine kinase 1),0.736,inactive
PRKCB (protein kinase C beta),0.736,inactive
DGUOK (deoxyguanosine kinase),-0.635,inactive
AKAP9 (A-kinase anchoring protein 9),-0.286,inactive
RTN4 (reticulon 4),0.736,inactive
PRPS1 (phosphoribosyl pyrophosphate synthetase 1),-0.298,inactive
NEK11 (NIMA related kinase 11),-1.1,inactive
CDK14 (cyclin dependent kinase 14),0.736,inactive
ATP23,-1.15,inactive
"KIT (KIT proto-oncogene, receptor tyrosine kinase)",-0.691,inactive
DYRK1A,0.419,inactive

Records above called active, once more:
Gene,"viability robust z-score, no drug",activity call
CDK11A (cyclin dependent kinase 11A),-3.93,active
